Results taken from the supplement of paper PMC10849652.
The list shows a part of the results.

By UniProt entry, the sequences of proteins in these tests, tags left out. Where a name states a change or a piece, a line headed by the entry shows the natural chain unless it says otherwise.
UniProt Q15631: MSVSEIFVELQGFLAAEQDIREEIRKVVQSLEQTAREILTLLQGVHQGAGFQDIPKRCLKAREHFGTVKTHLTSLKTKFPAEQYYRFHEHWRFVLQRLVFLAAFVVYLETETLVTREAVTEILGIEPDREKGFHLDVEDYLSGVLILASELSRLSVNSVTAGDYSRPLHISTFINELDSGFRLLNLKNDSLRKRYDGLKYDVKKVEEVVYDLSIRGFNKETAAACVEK
UniProt Q9Y5S1: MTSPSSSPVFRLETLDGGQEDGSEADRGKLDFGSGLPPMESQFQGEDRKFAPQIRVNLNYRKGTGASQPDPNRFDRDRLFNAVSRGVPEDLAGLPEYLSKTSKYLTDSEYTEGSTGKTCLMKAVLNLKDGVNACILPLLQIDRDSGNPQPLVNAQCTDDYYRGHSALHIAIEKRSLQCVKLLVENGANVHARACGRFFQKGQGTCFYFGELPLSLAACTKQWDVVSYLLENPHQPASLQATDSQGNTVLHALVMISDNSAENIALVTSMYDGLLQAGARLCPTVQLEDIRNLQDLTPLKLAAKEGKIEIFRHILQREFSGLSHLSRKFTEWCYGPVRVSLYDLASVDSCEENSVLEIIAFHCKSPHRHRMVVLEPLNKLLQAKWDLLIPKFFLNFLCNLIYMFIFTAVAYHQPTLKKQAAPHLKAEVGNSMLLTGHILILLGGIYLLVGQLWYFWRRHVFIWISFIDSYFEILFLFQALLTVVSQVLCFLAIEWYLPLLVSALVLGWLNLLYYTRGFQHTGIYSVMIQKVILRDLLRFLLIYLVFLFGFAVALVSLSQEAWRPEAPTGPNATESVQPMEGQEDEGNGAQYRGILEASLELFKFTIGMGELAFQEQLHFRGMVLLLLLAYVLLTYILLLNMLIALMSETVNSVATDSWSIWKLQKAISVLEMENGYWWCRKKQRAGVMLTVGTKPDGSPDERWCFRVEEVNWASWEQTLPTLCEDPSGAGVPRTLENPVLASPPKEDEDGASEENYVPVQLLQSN
UniProt Q9NUP7: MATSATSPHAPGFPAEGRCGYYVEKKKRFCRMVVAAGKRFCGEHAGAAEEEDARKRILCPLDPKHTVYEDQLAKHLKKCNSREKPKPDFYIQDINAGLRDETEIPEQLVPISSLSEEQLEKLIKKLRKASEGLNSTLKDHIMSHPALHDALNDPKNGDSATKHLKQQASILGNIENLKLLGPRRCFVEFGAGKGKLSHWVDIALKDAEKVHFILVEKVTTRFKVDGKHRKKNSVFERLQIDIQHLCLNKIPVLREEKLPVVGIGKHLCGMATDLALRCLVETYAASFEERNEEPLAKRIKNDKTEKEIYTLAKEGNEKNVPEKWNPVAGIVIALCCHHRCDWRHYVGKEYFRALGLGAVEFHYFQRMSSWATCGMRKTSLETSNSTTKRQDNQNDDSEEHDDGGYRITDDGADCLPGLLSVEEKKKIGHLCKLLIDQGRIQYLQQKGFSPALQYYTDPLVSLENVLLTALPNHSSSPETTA
UniProt O43617, whole entry, looked up: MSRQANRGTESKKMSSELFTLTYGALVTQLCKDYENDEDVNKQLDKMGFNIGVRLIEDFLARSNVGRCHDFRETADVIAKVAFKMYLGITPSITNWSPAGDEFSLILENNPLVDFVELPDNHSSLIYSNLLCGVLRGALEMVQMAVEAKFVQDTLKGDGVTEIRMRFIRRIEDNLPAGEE
UniProt Q8NG11: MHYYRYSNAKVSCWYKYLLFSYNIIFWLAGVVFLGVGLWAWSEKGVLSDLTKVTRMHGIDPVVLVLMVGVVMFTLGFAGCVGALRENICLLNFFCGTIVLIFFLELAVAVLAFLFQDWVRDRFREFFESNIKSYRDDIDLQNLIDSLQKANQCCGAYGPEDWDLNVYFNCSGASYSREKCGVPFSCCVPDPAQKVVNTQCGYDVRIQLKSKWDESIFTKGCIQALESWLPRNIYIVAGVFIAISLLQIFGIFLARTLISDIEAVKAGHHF
UniProt P48553, whole entry, looked up: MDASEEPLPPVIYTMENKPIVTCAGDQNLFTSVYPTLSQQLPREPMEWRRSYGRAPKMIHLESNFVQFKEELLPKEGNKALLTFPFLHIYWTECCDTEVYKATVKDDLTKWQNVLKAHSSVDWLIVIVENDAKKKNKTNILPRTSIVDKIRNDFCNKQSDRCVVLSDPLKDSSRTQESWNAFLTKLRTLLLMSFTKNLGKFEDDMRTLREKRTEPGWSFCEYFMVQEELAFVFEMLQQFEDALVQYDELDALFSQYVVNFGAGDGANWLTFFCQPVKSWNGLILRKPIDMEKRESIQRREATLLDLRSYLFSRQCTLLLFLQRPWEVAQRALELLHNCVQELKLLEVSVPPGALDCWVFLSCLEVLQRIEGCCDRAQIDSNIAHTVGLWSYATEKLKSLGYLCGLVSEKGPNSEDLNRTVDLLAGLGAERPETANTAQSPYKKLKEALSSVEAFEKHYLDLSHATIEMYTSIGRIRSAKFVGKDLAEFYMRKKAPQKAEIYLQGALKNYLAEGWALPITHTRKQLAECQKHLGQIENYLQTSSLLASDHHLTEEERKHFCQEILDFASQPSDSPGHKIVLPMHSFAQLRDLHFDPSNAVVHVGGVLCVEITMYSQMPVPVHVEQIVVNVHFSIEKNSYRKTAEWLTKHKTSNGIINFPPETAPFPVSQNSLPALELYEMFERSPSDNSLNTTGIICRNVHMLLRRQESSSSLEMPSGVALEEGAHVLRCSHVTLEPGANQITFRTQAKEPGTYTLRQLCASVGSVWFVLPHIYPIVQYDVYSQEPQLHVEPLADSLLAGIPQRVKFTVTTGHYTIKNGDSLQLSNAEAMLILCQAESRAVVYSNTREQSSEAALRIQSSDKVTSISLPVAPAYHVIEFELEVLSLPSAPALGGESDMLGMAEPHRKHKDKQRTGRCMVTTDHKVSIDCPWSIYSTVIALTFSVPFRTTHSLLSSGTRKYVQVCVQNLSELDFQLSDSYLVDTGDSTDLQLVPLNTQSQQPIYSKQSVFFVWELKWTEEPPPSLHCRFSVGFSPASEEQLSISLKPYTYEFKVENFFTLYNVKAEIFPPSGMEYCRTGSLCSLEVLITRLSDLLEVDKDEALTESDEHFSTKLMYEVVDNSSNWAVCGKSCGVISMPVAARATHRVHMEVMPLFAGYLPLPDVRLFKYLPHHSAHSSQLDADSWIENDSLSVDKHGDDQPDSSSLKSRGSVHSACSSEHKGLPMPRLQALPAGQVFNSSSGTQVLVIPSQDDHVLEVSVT
UniProt Q9UJA5: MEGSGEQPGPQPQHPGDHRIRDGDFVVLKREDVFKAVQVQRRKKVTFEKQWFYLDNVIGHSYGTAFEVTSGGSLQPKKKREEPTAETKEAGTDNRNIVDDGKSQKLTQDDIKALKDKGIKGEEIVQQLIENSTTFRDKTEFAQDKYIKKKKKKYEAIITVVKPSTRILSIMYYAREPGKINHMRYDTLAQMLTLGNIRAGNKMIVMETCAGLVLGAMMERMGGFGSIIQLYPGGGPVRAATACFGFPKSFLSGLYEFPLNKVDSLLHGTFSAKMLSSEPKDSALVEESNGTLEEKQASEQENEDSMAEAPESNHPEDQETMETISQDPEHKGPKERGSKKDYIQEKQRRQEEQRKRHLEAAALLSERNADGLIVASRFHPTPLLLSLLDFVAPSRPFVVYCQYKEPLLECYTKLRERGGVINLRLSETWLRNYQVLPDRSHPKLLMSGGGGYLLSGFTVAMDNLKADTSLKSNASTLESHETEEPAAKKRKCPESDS
UniProt Q15714: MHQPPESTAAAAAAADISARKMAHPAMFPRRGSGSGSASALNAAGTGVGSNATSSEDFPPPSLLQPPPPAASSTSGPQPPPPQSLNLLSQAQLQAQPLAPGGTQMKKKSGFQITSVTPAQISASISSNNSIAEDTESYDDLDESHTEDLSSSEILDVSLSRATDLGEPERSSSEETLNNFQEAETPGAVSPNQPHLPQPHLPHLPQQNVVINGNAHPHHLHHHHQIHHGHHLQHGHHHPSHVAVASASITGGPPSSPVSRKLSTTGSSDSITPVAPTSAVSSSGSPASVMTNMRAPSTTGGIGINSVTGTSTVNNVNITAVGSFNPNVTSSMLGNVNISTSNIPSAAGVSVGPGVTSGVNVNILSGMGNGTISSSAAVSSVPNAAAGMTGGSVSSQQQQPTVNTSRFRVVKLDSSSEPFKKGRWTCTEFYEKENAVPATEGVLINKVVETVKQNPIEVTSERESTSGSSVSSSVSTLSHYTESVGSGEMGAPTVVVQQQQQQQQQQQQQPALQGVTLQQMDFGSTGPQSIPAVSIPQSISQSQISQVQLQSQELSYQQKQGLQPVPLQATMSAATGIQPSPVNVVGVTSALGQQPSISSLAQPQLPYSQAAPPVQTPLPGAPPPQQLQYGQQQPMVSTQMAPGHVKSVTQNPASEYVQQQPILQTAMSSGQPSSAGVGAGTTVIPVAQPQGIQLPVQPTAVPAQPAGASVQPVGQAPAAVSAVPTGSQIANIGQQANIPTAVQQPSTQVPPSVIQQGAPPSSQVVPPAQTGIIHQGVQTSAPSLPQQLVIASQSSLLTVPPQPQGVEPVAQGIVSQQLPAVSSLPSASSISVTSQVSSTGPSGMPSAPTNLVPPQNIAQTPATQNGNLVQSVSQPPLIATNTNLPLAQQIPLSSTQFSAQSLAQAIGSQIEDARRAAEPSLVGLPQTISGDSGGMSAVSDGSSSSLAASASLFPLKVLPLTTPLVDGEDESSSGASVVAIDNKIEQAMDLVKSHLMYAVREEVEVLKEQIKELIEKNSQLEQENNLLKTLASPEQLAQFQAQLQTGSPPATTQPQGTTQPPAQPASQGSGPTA
UniProt Q8N5M4: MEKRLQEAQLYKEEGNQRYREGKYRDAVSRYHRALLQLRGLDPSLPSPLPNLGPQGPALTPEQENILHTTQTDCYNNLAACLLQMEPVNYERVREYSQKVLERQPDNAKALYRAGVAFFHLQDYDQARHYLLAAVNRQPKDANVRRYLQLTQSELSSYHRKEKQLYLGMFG
UniProt Q9UL33, whole entry, looked up: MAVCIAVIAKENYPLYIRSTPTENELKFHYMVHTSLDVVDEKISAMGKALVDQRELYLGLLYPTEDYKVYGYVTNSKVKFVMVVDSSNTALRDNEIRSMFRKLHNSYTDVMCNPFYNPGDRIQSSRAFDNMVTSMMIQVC
UniProt Q9Y4K3: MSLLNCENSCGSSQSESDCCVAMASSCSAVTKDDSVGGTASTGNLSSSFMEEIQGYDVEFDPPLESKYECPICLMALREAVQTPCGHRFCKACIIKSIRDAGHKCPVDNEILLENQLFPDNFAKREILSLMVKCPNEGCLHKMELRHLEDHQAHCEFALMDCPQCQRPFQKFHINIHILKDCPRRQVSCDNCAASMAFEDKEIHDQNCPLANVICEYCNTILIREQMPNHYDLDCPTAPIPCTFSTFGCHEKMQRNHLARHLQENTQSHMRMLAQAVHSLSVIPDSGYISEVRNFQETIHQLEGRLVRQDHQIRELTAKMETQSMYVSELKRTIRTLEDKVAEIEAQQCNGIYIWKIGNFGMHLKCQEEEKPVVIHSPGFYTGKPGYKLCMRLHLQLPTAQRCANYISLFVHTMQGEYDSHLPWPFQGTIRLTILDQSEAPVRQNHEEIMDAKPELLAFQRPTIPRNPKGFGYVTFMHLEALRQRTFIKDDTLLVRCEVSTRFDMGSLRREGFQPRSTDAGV
UniProt Q8TEL6: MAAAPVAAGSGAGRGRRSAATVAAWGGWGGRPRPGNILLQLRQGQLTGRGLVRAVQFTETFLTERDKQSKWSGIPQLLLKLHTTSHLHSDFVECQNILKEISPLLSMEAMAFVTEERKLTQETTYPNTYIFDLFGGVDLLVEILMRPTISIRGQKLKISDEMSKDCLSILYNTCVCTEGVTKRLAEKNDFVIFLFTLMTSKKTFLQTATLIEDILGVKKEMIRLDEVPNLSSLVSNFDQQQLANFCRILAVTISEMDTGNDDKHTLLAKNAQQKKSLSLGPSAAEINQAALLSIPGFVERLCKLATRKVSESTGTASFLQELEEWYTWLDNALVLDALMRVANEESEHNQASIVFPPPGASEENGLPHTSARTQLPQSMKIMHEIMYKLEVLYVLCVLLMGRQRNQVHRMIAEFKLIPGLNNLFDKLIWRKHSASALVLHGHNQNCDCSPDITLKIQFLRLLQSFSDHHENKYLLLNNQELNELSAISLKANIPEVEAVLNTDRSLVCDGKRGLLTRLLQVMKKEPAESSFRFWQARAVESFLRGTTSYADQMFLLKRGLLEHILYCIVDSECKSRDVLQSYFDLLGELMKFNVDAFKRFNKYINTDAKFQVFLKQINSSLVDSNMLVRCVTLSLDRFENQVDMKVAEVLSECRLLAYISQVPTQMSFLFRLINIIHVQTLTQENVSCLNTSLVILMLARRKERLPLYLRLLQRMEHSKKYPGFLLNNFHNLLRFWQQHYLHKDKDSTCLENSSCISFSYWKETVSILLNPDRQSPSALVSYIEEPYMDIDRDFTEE
UniProt O95857: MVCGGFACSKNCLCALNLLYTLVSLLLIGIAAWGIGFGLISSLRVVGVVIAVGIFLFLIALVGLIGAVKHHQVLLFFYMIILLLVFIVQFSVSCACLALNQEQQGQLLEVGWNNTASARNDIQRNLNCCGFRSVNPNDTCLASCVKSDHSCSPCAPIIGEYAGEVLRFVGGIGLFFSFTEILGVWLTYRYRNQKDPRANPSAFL

Tests used:
Assay in all cases: log2 fold change, soluble protein after heating vs DMSO (PISA); higher = thermal stabilisation; K562 lysate, 10 uM; active = over 0.2 and 3.5 SD of the protein, either way, in both replicates (recomputed)
alvocidib = compound: CN1CC[C@H](c2c(O)cc(O)c3c(=O)cc(-c4ccccc4Cl)oc23)[C@H](O)C1 [alvocidib]
Procedure, shortened: (§1)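 Log-two fold change in thermal stability relative to solvent controls is reported from duplicates. For each sample, crude K562 extract from dounce-homogenised pellets in PBS pH 7.4 with 1 mM MgCl2, at 1 mg/mL protein, was treated with 10 μM compound for 30 min. Aliquots heated for 3 min across 48°C-58°C were pooled, brought to 0.5% NP-40 at 4°C and cleared at 21,000xg for 90 min. The supernatant was quantified by TMTpro 16plex LC-MS/MS with channel sums equalised.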

Tubastatin A = compound: CN1CCc2c(c3ccccc3n2Cc2ccc(C(=O)NO)cc2)C1 [Tubastatin A]
Procedure, shortened: as §1

[1] = compound: CNC(=O)C1=CC=CC=C1NC2=NC(=NC=C2Cl)NC3=C(C=C(C=C3)N4CCOCC4)OC
Procedure, shortened: as §1

defactinib = compound: CNC(=O)c1ccc(Nc2ncc(C(F)(F)F)c(NCc3nccnc3N(C)S(C)(=O)=O)n2)cc1 [defactinib]
Procedure, shortened: as §1

[2] = compound: CNc1nc(-c2ccc3c(N)n[nH]c3c2)cc(N2C[C@@H](C(=O)NC3CCCCC3)CC[C@H]2C)n1
Procedure, shortened: as §1

encorafenib = compound: COC(=O)N[C@@H](C)CNc1nccc(-c2cn(C(C)C)nc2-c2cc(Cl)cc(NS(C)(=O)=O)c2F)n1 [encorafenib]
Procedure, shortened: as §1

[3] = compound: COC(=O)[C@H](CCSC)NC(=O)C1=C(C=C(C=C1)NC[C@H](CS)N)C2=CC=CC=C2
Procedure, shortened: as §1

alisertib = compound: COc1cc(Nc2ncc3c(n2)-c2ccc(Cl)cc2C(c2c(F)cccc2OC)=NC3)ccc1C(=O)O [alisertib]
Procedure, shortened: as §1

[4] = compound: COc1cc2nc(-c3cc(F)ccc3O)nc(N[C@@H]3CNC[C@H]3C(C)(C)O)c2cc1OC
Procedure, shortened: as §1

gefitinib = compound: COc1cc2ncnc(Nc3ccc(F)c(Cl)c3)c2cc1OCCCN1CCOCC1 [gefitinib]
Procedure, shortened: as §1

lapatinib = compound: CS(=O)(=O)CCNCc1ccc(-c2ccc3ncnc(Nc4ccc(OCc5cccc(F)c5)c(Cl)c4)c3c2)o1 [lapatinib]
Procedure, shortened: as §1

pictilisib = compound: CS(=O)(=O)N1CCN(Cc2cc3nc(-c4cccc5[nH]ncc45)nc(N4CCOCC4)c3s2)CC1 [pictilisib]
Procedure, shortened: as §1

crizotinib = compound: C[C@@H](Oc1cc(-c2cnn(C3CCNCC3)c2)cnc1N)c1c(Cl)ccc(F)c1Cl [crizotinib]
Procedure, shortened: as §1

[5] = compound: C[C@H](C1=CC=C(C=C1)C(=O)NC2=C3C=CNC3=NC=C2)N
Procedure, shortened: as §1

duvelisib = compound: C[C@H](Nc1ncnc2nc[nH]c12)c1cc2cccc(Cl)c2c(=O)n1-c1ccccc1 [duvelisib]
Procedure, shortened: as §1

gandotinib = compound: Cc1cc(Nc2cc(CN3CCOCC3)c3nc(C)c(Cc4ccc(Cl)cc4F)n3n2)n[nH]1 [gandotinib]
Procedure, shortened: as §1

tozasertib = compound: Cc1cc(Nc2cc(N3CCN(C)CC3)nc(Sc3ccc(NC(=O)C4CC4)cc3)n2)n[nH]1 [tozasertib]
Procedure, shortened: as §1

doramapimod = compound: Cc1ccc(-n2nc(C(C)(C)C)cc2NC(=O)Nc2ccc(OCCN3CCOCC3)c3ccccc23)cc1 [doramapimod]
Procedure, shortened: as §1

bafetinib = compound: Cc1ccc(NC(=O)c2ccc(CN3CC[C@H](N(C)C)C3)c(C(F)(F)F)c2)cc1Nc1nccc(-c2cncnc2)n1 [bafetinib]
Procedure, shortened: as §1

[6] = compound: Cc1cccc(CC(=O)N2CCc3c2ccc(-c2cn(C)c4ncnc(N)c24)c3F)n1
Procedure, shortened: as §1

Measured: log2 fold change

TSN (UniProt Q15631)
inactive: alvocidib -0.021 | Tubastatin A 0.047 | [1] -0.002 | defactinib -0.03 | [2] 0.048 | encorafenib -0.015 | [3] -0.014 | alisertib 0.031 | [4] 0.032 | gefitinib 0.019 | lapatinib -0.033 | pictilisib 0.001 | crizotinib 0.018 | [5] -0.113 | duvelisib -0.018 | gandotinib 0.085 | tozasertib 0.002 | doramapimod -0.032 | bafetinib 0.022 | [6] 0.006

TRPV2 (UniProt Q9Y5S1)
inactive: alvocidib -0.075 | Tubastatin A 0.042 | [1] 0.014 | defactinib 0.014 | [2] 0.033 | encorafenib 0.005 | [3] -0.018 | alisertib -0.031 | [4] 0.013 | gefitinib -0.053 | lapatinib -0.015 | pictilisib -0.013 | crizotinib 0.016 | [5] -0.105 | duvelisib 0.013 | gandotinib 0.06 | tozasertib -0.026 | doramapimod 0.015 | bafetinib -0.03 | [6] 0.051

TRMT13 (UniProt Q9NUP7)
inactive: alvocidib -0.014 | Tubastatin A -0.003 | [1] 0.095 | defactinib -0.027 | [2] -0.011 | encorafenib 0.061 | [3] -0.006 | alisertib -0.015 | [4] 0.013 | gefitinib 0.029 | lapatinib -0.015 | pictilisib -0.018 | crizotinib -0.011 | [5] 0.022 | duvelisib 0.041 | gandotinib -0.058 | tozasertib -0.041 | doramapimod 0.072 | bafetinib -0.004 | [6] 0.119

TRAPPC3 (UniProt O43617)
inactive: alvocidib 0.028 | Tubastatin A -0.003 | [1] 0.023 | defactinib 0.027 | [2] -0.11 | encorafenib -0.01 | [3] 0.032 | alisertib 0.019 | [4] -0.037 | gefitinib 0.016 | lapatinib -0.007 | pictilisib -0.016 | crizotinib 0.065 | [5] 0.007 | duvelisib 0.002 | gandotinib -0.021 | tozasertib 0.045 | doramapimod -0.032 | bafetinib 0.001 | [6] -0.004

TSPAN14 (UniProt Q8NG11)
inactive: alvocidib -0.035 | Tubastatin A 0.003 | [1] 0.049 | defactinib 0.01 | [2] 0.016 | encorafenib 0.037 | [3] -0.052 | alisertib 0.02 | [4] 0.004 | gefitinib 0.004 | lapatinib -0.001 | pictilisib -0.059 | crizotinib -0.08 | [5] -0.087 | duvelisib -0.022 | gandotinib 0.112 | tozasertib 0.042 | doramapimod 0.076 | bafetinib -0.063 | [6] 0.063

2 entries picked at random from the list so far:
TRMT13 (UniProt Q9NUP7)
inactive: alvocidib -0.014 | Tubastatin A -0.003 | [1] 0.095 | defactinib -0.027 | [2] -0.011 | encorafenib 0.061 | [3] -0.006 | alisertib -0.015 | [4] 0.013 | gefitinib 0.029 | lapatinib -0.015 | pictilisib -0.018 | crizotinib -0.011 | [5] 0.022 | duvelisib 0.041 | gandotinib -0.058 | tozasertib -0.041 | doramapimod 0.072 | bafetinib -0.004 | [6] 0.119

TSN (UniProt Q15631)
inactive: alvocidib -0.021 | Tubastatin A 0.047 | [1] -0.002 | defactinib -0.03 | [2] 0.048 | encorafenib -0.015 | [3] -0.014 | alisertib 0.031 | [4] 0.032 | gefitinib 0.019 | lapatinib -0.033 | pictilisib 0.001 | crizotinib 0.018 | [5] -0.113 | duvelisib -0.018 | gandotinib 0.085 | tozasertib 0.002 | doramapimod -0.032 | bafetinib 0.022 | [6] 0.006

Following part

TRAPPC10 (UniProt P48553)
inactive: alvocidib -0.034 | Tubastatin A -0.074 | [1] 0.01 | defactinib -0.034 | [2] 0.011 | encorafenib 0.009 | [3] -0.047 | alisertib 0.015 | [4] -0.001 | gefitinib -0.029 | lapatinib 0 | pictilisib 0 | crizotinib -0.034 | [5] -0.101 | duvelisib -0.016 | gandotinib 0.022 | tozasertib -0.01 | doramapimod -0.027 | bafetinib -0.007 | [6] 0.074

TRIM33 (UniProt H0Y612)
inactive: alvocidib -0.081 | Tubastatin A -0.034 | [1] 0.119 | defactinib -0.007 | [2] 0.075 | encorafenib 0.014 | [3] 0.122 | alisertib -0.006 | [4] 0.09 | gefitinib -0.102 | lapatinib -0.078 | pictilisib 0.044 | crizotinib 0.004 | [5] -0.093 | duvelisib 0.012 | gandotinib 0.019 | tozasertib 0.07 | doramapimod 0.001 | bafetinib -0.077 | [6] 0.039

TRMT6 (UniProt Q9UJA5)
inactive: alvocidib 0.011 | Tubastatin A -0.005 | [1] -0.02 | defactinib 0.007 | [2] -0.019 | encorafenib 0.018 | [3] 0.03 | alisertib 0.029 | [4] 0.015 | gefitinib -0.046 | lapatinib -0.01 | pictilisib 0.009 | crizotinib 0.004 | [5] -0.026 | duvelisib -0.003 | gandotinib 0.035 | tozasertib 0.02 | doramapimod -0.044 | bafetinib -0.014 | [6] 0.026

TSC22D1 (UniProt Q15714)
inactive: alvocidib -0.03 | Tubastatin A 0.006 | [1] -0.096 | defactinib -0.05 | [2] 0.014 | encorafenib 0.02 | [3] 0.003 | alisertib -0.002 | [4] 0.017 | gefitinib -0.007 | lapatinib -0.029 | pictilisib -0.038 | crizotinib -0.027 | [5] -0.034 | duvelisib 0.022 | gandotinib 0.03 | tozasertib -0.003 | doramapimod 0.006 | bafetinib -0.046 | [6] -0.023

TTC19 (UniProt Q6DKK2)
inactive: alvocidib -0.014 | Tubastatin A -0.024 | [1] -0.009 | defactinib -0.088 | [2] -0.046 | encorafenib 0.006 | [3] 0.049 | alisertib -0.035 | [4] -0.052 | gefitinib 0.025 | lapatinib -0.003 | pictilisib 0.006 | crizotinib -0.063 | [5] -0.072 | duvelisib -0.028 | gandotinib 0.006 | tozasertib -0.034 | doramapimod 0.031 | bafetinib -0.038 | [6] 0.066

TTC9C (UniProt Q8N5M4)
inactive: alvocidib -0.035 | Tubastatin A 0.022 | [1] 0.035 | defactinib 0.016 | [2] 0.016 | encorafenib 0.014 | [3] -0.066 | alisertib -0.127 | [4] 0.009 | gefitinib -0.133 | lapatinib -0.001 | pictilisib -0.025 | crizotinib 0.049 | [5] -0.157 | duvelisib -0.056 | gandotinib 0.091 | tozasertib 0.002 | doramapimod -0.028 | bafetinib -0.048 | [6] 0.066

TRAPPC2L (UniProt Q9UL33)
inactive: alvocidib 0.005 | Tubastatin A 0.031 | [1] 0.013 | defactinib 0.024 | [2] -0.01 | encorafenib 0.068 | [3] -0.084 | alisertib -0.148 | [4] -0.015 | gefitinib -0.01 | lapatinib 0.027 | pictilisib -0.012 | crizotinib -0.025 | [5] -0.023 | duvelisib -0.045 | gandotinib 0.003 | tozasertib 0.063 | doramapimod -0.024 | bafetinib -0.012 | [6] 0.075

TRIP12 isoform 2 (UniProt Q14669)
inactive: alvocidib 0.018 | Tubastatin A -0.035 | [1] 0.002 | defactinib 0.045 | [2] -0.17 | encorafenib 0.049 | [3] -0.018 | alisertib 0.019 | [4] -0.122 | gefitinib 0.005 | lapatinib -0.109 | pictilisib 0.016 | crizotinib -0.029 | [5] -0.012 | duvelisib 0.05 | gandotinib -0.042 | tozasertib 0.024 | doramapimod -0.006 | bafetinib -0.06 | [6] 0.06

TRAF6 (UniProt Q9Y4K3)
inactive: alvocidib 0.026 | Tubastatin A -0.003 | [1] 0.017 | defactinib 0.026 | [2] -0.01 | encorafenib 0.015 | [3] -0.041 | alisertib -0.01 | [4] 0.029 | gefitinib 0.011 | lapatinib -0.038 | pictilisib -0.013 | crizotinib -0.034 | [5] 0.087 | duvelisib -0.037 | gandotinib -0.052 | tozasertib -0.013 | doramapimod 0.025 | bafetinib 0.055 | [6] -0.031

TRPC4AP (UniProt Q8TEL6)
inactive: alvocidib -0.024 | Tubastatin A 0.04 | [1] 0.019 | defactinib -0.007 | [2] -0.069 | encorafenib 0.006 | [3] 0.099 | alisertib 0.021 | [4] -0.032 | gefitinib 0.005 | lapatinib -0.005 | pictilisib 0.03 | crizotinib -0.037 | [5] -0.007 | duvelisib 0.065 | gandotinib 0.032 | tozasertib -0.003 | doramapimod 0.033 | bafetinib -0.069 | [6] 0.017

TSPAN13 (UniProt O95857)
inactive: alvocidib -0.26 | Tubastatin A 0.046 | [1] -0.042 | defactinib 0.017 | [2] 0.299 | encorafenib -0.007 | [3] 0.049 | alisertib 0.003 | [4] 0.043 | gefitinib -0.003 | lapatinib 0.017 | pictilisib 0.015 | crizotinib 0.011 | duvelisib -0.241 | gandotinib 0.32 | tozasertib -0.207 | doramapimod 0.119 | bafetinib 0.038 | [6] 0.055
active: [5] -0.387
